Laboratory results as given in the supplement of paper PMC3334620.
Whole data set: some 33,000 sequences, median “E-score (-0.5 to 0.5)” near -0.016, cut for the highest 2% near 0.3. This is one part of the list.

target: T1, Yer184c (UniProt P39961); assay: PBM E-score (8-mer binding enrichment) (E-score (-0.5 to 0.5)); higher = stronger / more preferred TF binding; settings: protein concentration: 100 nM; construct: GST-full length
T1 sequence: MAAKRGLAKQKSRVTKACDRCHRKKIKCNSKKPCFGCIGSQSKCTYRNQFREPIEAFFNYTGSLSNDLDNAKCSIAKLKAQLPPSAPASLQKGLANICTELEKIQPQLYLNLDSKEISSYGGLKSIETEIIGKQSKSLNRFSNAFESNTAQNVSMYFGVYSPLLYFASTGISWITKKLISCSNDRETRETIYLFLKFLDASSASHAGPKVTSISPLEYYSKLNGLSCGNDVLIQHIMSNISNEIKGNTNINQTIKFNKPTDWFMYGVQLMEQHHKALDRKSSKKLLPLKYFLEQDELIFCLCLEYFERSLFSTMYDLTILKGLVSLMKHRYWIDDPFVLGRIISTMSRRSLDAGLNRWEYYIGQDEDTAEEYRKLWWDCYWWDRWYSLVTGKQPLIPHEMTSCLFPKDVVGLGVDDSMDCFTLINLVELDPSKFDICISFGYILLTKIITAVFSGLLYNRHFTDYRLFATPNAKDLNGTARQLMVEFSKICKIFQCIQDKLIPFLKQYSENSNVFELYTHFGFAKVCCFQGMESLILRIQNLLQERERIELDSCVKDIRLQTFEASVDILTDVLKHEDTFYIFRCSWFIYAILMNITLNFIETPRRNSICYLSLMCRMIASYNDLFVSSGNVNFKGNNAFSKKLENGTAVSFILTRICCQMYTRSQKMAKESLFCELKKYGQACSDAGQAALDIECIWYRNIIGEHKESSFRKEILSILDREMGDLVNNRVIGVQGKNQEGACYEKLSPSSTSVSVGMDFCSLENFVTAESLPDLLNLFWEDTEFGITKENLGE
Outline: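 Yeast transcription factors carrying a GST tag, as full-length proteins or DNA-binding domains, were produced by PURExpress in vitro transcription/translation. About 100-200 nM protein was applied to universal all-10-mer Agilent arrays, double-stranded by primer extension on fresh or once-stripped slides. Bound protein was detected with fluorescent anti-GST, and scans were normalised with masliner. The Universal PBM Analysis Suite gave each ungapped eight-base word, pooled with its reverse complement, an E-score, a modified Wilcoxon-Mann-Whitney statistic.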

Going from ACTCTGAG to CGGTCGTC, the “PBM E-score” value rises from -0.169 to -0.0988.

Going from ACCATGGT to CCCCTTTA, the “PBM E-score” value rises from -0.432 to -0.142.

First: ATACTCTC
Second: CCCCCACC
The “PBM E-score” value of the first is higher: 0.0198 for the first, -0.4 for the second.

Going from CACGGGAA to GAGAACCA, the “PBM E-score” value falls from 0.0605 to -0.00661.

Compared with CCCAGACG, AGGCTCAG is higher in “PBM E-score” value: -0.245 for the first, -0.163 for the second.

First: CCTAGGTA
Second: GGCGGAAA
The “PBM E-score” value of the first is lower: -0.156 for the first, 0.108 for the second.

Compared with ATACCCCC, CGGGAAAC is higher in “PBM E-score” value: -0.214 for the first, 0.286 for the second.

Compared with AAATTCAT, ATCGTCCG is higher in “PBM E-score” value: 0.0832 for the first, 0.242 for the second.

First: CACCCGTA
Second: ACTTCATG
The “PBM E-score” value of the first is lower: -0.128 for the first, -0.111 for the second.

First: AGAGGAGC
Second: AACAGTTA
The “PBM E-score” value of the first is lower: -0.17 for the first, 0.125 for the second.

First: CCGCGAAC
Second: ACGCGCCG
The “PBM E-score” value of the first is lower: 0.0269 for the first, 0.058 for the second.

Compared with AATCCATG, AGGGCACT is lower in “PBM E-score” value: -0.106 for the first, -0.381 for the second.

Compared with CTCCCATA, ATCTCTTG is higher in “PBM E-score” value: -0.308 for the first, -0.172 for the second.

Compared with GAGGGAAA, GCTACGCC is lower in “PBM E-score” value: -0.184 for the first, -0.255 for the second.

Compared with ATTGCAGA, CCGTAACC is higher in “PBM E-score” value: 0.129 for the first, 0.222 for the second.

Going from ACAGCCAC to CACCCTGG, the “PBM E-score” value falls from 0.0446 to -0.263.

Compared with CCTCATGC, CGATTAGC is higher in “PBM E-score” value: -0.323 for the first, 0.0101 for the second.

Compared with AACGGATC, ATCATTCA is lower in “PBM E-score” value: 0.306 for the first, 0.195 for the second.

First: CGCTAGAG
Second: CTTCAGGC
The “PBM E-score” value of the first is lower: -0.192 for the first, -0.121 for the second.

First: GAGGTGTA
Second: CAAGGGTG
The “PBM E-score” value of the first is higher: -0.15 for the first, -0.209 for the second.

Compared with GTGTAAGA, GGAACGAA is higher in “PBM E-score” value: -0.0634 for the first, 0.0929 for the second.

Compared with ACCCCTTA, CTAGAGAG is lower in “PBM E-score” value: -0.129 for the first, -0.149 for the second.

First: CTACCGTC
Second: CGGGTTAC
The “PBM E-score” value of the first is lower: -0.0721 for the first, 0.00164 for the second.

First: ACTTTGCT
Second: TAAGGTAA
The “PBM E-score” value of the first is lower: -0.0767 for the first, 0.0874 for the second.

Compared with GCTGCAGC, GCGGATTA is higher in “PBM E-score” value: -0.209 for the first, 0.0175 for the second.

Compared with GCCTTTAA, AATTCGGC is higher in “PBM E-score” value: 0.0977 for the first, 0.24 for the second.

Compared with CGTCATAC, GAGAGAGA is lower in “PBM E-score” value: 0.129 for the first, -0.0723 for the second.

Going from GCTTCGAA to CTGCGCGA, the “PBM E-score” value falls from 0.126 to -0.145.

Compared with ATATGTGG, AGACAACT is higher in “PBM E-score” value: 0.00073 for the first, 0.00867 for the second.

Compared with AGTTCCCC, AAAGCATC is higher in “PBM E-score” value: -0.0634 for the first, 0.123 for the second.

First: TACTCGAA
Second: AAGTAAGG
The “PBM E-score” value of the first is higher: 0.0325 for the first, -0.00028 for the second.

Going from ATGGGGAA to GTGATCAC, the “PBM E-score” value rises from -0.103 to 0.0663.

Going from AATCGACC to AAGGGGGC, the “PBM E-score” value falls from 0.0634 to -0.276.

Going from AGTGAAGC to GGTAAACA, the “PBM E-score” value rises from 0.013 to 0.202.

Compared with AGCTGAAC, AAATCTGG is higher in “PBM E-score” value: -0.104 for the first, 0.154 for the second.

Going from AACGGTAT to CGCGGATC, the “PBM E-score” value rises from 0.0653 to 0.13.

Compared with CGCACAGC, AATGGGTA is higher in “PBM E-score” value: 0.00671 for the first, 0.235 for the second.

First: GCCCCTCC
Second: CCTGCATA
The “PBM E-score” value of the first is lower: -0.27 for the first, -0.105 for the second.

Going from CCCAGTAC to AGGACTTA, the “PBM E-score” value rises from -0.18 to -0.159.

First: AATGTGCC
Second: GGGAGACA
The “PBM E-score” value of the first is higher: 0.0817 for the first, -0.0399 for the second.

First: CCGCGAGC
Second: GCGTTACC
The “PBM E-score” value of the first is higher: 0.0253 for the first, -0.101 for the second.

Going from GTGTCGCA to CCCGCGTC, the “PBM E-score” value rises from -0.0721 to 0.0602.

Going from GAGTAGCC to TCCTTTAA, the “PBM E-score” value rises from -0.0142 to 0.0155.

Compared with CGAGTGAC, ATATAATG is higher in “PBM E-score” value: -0.0518 for the first, -0.0164 for the second.

First: ACTGTGGG
Second: AGATTGCA
The “PBM E-score” value of the first is lower: -0.216 for the first, 0.0291 for the second.

First: CGTAGATA
Second: CCGGGCAA
The “PBM E-score” value of the first is lower: -0.00543 for the first, 0.235 for the second.

Going from GCGACACA to CACCAGTC, the “PBM E-score” value falls from -0.159 to -0.277.

Compared with ATCGTAGG, AGAGACCG is higher in “PBM E-score” value: -0.128 for the first, -0.00169 for the second.

Compared with GCCCAATA, ATTGTCAC is higher in “PBM E-score” value: -0.138 for the first, 0.0514 for the second.

Going from CCTAACCA to GGGTAGCA, the “PBM E-score” value falls from -0.0677 to -0.0682.

Compared with TCACCAGA, CCCCGCTA is higher in “PBM E-score” value: -0.25 for the first, -0.0597 for the second.

Compared with GGTCGTTA, GTGCCACA is lower in “PBM E-score” value: 0.0632 for the first, -0.256 for the second.

Compared with ATGTTGCA, AAAGGTCA is higher in “PBM E-score” value: -0.133 for the first, -0.0675 for the second.

Going from GGGACGAC to AGCGACGA, the “PBM E-score” value falls from -0.0383 to -0.12.

Compared with TACCATAA, TACAATAA is higher in “PBM E-score” value: 0.134 for the first, 0.14 for the second.

Going from CGTTAAAA to CGGGTAAG, the “PBM E-score” value falls from 0.00552 to -0.0605.

Compared with ACTATCCC, ACCCCCGG is higher in “PBM E-score” value: -0.28 for the first, -0.0667 for the second.

Going from GGAACACA to AAGAGCGC, the “PBM E-score” value falls from 0.0766 to -0.00569.

First: CGGCCGTC
Second: CATCCGAA
The “PBM E-score” value of the first is lower: 0.278 for the first, 0.338 for the second.

Going from CACTGCCC to AGGCGGCG, the “PBM E-score” value rises from -0.127 to -0.069.

Compared with AAAGCGGA, GCACCTCC is lower in “PBM E-score” value: 0.0673 for the first, -0.191 for the second.

Going from CTTGGAGC to CATGGAGC, the “PBM E-score” value rises from -0.259 to -0.175.

Compared with GCCGTATA, CCGCATAA is lower in “PBM E-score” value: 0.293 for the first, 0.224 for the second.

Going from CCAAGAAG to AAATCTTA, the “PBM E-score” value rises from -0.166 to 0.106.

Compared with CTTTCGTC, CTGACATA is higher in “PBM E-score” value: -0.0387 for the first, 0.0194 for the second.

Going from ACTATTCG to CGGCACTA, the “PBM E-score” value rises from 0.0869 to 0.275.

First: ACAGTAGC
Second: GATTGCAA
The “PBM E-score” value of the first is lower: -0.0134 for the first, 0.0613 for the second.

Going from AGATGCGC to CGAACTAC, the “PBM E-score” value rises from -0.0784 to 0.0997.

Compared with ACTATAAC, AGAGGTCC is higher in “PBM E-score” value: -0.0771 for the first, 0.14 for the second.

Compared with CTGAGAGC, GCCGACGA is higher in “PBM E-score” value: -0.129 for the first, 0.194 for the second.

Compared with ACGTAGAC, CGATTCGC is higher in “PBM E-score” value: -0.3 for the first, 0.166 for the second.

First: AGAAAAGC
Second: GACGAGAA
The “PBM E-score” value of the first is lower: 0.0636 for the first, 0.138 for the second.

Compared with GGCGCACA, CGTAAAGC is lower in “PBM E-score” value: -0.0598 for the first, -0.157 for the second.

Compared with TAATATCA, ATCTTACA is lower in “PBM E-score” value: 0.245 for the first, 0.031 for the second.

Going from CTCATCCA to TTGGGAAA, the “PBM E-score” value rises from -0.0545 to 0.153.

Going from CCCGGTAG to ACCGAGCC, the “PBM E-score” value rises from 0.115 to 0.221.

Going from CCAATCGG to TACTAGGA, the “PBM E-score” value rises from 0.0763 to 0.0796.

First: AGGACACT
Second: GACTGGCA
The “PBM E-score” value of the first is higher: -0.209 for the first, -0.226 for the second.

Compared with AGCAATCG, CAATTGGG is lower in “PBM E-score” value: -0.0197 for the first, -0.124 for the second.

Going from AGGATTGA to CTGGGCGC, the “PBM E-score” value falls from 0.12 to -0.284.

Going from ACCCAATC to AGAACCAA, the “PBM E-score” value falls from -0.00791 to -0.034.

Compared with ATGGCCGG, CCCGCTCA is lower in “PBM E-score” value: 0.215 for the first, -0.141 for the second.

Compared with AGAAGGAG, GAGTGATA is higher in “PBM E-score” value: -0.293 for the first, 0.0635 for the second.

Compared with AACGCCAA, CATTCCAG is lower in “PBM E-score” value: -0.0338 for the first, -0.119 for the second.

First: GGAACCCA
Second: AGTGTGGC
The “PBM E-score” value of the first is higher: 0.0157 for the first, -0.0838 for the second.

Compared with ATGTGGCC, CTCTCTGA is lower in “PBM E-score” value: -0.0771 for the first, -0.111 for the second.
